± gives the standard deviation of the averaged measurements. Most values lie within the scatter of the assay; repeated measurements hardly agree.

Sequences of proteins named here, by UniProt entry; tags and fusion partners are left off. A change or cut given only in a name is not applied to a line headed by its entry.
UniProt Q9NQS1: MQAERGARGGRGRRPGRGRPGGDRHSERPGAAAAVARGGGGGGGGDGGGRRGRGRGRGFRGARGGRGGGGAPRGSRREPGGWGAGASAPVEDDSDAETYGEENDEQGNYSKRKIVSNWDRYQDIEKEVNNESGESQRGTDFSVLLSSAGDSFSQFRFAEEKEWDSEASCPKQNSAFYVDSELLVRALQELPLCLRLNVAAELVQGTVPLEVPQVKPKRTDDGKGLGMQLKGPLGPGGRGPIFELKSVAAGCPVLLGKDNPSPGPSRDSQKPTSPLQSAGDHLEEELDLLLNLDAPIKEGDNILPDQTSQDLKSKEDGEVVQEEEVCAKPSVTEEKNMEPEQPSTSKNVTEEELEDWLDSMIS
UniProt Q9NYF8, whole entry, looked up: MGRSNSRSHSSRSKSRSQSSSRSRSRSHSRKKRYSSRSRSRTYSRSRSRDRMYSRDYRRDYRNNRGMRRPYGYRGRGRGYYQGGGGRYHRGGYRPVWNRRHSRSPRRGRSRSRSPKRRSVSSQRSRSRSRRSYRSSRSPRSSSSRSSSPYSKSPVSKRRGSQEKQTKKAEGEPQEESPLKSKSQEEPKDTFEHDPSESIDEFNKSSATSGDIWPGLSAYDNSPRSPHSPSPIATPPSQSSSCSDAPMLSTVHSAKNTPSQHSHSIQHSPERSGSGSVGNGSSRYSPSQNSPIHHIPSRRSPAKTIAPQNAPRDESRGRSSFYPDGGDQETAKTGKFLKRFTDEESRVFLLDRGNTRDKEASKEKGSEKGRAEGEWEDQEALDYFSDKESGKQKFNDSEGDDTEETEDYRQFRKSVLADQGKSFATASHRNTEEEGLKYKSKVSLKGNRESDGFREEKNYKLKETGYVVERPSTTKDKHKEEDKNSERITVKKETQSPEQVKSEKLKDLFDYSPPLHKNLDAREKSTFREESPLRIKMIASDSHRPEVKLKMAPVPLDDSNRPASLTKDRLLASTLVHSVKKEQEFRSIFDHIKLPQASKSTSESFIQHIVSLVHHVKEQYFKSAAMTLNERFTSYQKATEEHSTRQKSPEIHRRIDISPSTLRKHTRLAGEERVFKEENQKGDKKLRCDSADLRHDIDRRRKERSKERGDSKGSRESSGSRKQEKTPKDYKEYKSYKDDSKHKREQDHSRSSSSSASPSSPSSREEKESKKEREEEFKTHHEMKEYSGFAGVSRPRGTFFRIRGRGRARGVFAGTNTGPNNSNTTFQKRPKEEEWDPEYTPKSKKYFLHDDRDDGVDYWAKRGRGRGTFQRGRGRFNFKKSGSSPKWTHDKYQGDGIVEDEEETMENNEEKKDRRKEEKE
UniProt Q8N3F8: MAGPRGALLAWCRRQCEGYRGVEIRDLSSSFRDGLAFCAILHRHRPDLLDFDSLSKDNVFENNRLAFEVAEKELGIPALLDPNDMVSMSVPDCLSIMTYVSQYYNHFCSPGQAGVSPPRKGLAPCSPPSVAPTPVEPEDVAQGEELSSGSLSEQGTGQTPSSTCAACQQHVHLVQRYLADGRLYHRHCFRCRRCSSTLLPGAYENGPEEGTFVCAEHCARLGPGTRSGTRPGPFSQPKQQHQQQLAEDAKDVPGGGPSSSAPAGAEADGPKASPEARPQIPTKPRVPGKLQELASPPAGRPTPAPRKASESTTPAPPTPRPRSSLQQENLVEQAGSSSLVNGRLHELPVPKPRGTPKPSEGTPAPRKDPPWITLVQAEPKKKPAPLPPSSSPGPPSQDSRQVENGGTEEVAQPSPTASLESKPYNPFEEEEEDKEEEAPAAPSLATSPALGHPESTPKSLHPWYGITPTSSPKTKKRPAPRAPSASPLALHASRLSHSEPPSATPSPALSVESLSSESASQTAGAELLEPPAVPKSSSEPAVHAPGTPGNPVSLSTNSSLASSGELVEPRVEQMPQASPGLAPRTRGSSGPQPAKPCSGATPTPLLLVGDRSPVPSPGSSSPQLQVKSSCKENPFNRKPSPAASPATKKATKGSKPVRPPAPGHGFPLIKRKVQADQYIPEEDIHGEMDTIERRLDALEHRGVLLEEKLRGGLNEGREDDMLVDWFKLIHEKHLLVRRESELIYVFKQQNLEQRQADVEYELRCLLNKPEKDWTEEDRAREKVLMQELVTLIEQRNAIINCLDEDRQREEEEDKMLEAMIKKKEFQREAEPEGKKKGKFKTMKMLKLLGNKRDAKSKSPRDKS
UniProt Q96QR8: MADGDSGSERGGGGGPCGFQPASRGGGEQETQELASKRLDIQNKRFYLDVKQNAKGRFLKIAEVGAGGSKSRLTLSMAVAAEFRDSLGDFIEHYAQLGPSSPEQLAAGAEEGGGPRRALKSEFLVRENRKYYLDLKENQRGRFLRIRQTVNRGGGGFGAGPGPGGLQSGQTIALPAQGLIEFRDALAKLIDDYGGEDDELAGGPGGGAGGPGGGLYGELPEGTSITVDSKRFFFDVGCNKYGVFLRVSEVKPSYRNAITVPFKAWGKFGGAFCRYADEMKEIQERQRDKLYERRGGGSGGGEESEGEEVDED
UniProt O94804: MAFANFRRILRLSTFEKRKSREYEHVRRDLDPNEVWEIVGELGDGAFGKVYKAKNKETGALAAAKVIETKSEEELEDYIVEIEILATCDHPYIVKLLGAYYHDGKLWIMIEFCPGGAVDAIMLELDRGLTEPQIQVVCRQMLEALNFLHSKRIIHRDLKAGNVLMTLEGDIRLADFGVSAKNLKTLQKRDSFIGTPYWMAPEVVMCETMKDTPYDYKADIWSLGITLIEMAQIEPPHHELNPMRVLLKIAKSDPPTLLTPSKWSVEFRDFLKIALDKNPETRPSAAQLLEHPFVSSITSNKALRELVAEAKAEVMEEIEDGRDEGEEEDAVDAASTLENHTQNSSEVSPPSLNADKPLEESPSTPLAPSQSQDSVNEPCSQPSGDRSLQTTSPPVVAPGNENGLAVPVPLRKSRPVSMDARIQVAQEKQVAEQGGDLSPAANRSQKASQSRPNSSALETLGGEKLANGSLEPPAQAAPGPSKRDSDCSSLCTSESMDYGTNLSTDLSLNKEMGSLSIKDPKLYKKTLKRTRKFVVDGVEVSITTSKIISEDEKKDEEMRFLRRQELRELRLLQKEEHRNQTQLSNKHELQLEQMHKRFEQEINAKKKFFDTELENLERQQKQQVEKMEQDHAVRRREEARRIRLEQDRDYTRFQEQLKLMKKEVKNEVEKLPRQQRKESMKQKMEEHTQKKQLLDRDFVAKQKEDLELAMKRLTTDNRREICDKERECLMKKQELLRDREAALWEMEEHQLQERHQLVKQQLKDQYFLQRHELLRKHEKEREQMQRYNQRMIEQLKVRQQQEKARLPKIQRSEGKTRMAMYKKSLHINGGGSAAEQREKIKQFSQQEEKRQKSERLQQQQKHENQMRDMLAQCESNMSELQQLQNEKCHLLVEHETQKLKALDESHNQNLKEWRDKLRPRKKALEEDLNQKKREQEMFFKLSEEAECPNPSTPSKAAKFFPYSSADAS
UniProt Q96B97, whole entry, looked up: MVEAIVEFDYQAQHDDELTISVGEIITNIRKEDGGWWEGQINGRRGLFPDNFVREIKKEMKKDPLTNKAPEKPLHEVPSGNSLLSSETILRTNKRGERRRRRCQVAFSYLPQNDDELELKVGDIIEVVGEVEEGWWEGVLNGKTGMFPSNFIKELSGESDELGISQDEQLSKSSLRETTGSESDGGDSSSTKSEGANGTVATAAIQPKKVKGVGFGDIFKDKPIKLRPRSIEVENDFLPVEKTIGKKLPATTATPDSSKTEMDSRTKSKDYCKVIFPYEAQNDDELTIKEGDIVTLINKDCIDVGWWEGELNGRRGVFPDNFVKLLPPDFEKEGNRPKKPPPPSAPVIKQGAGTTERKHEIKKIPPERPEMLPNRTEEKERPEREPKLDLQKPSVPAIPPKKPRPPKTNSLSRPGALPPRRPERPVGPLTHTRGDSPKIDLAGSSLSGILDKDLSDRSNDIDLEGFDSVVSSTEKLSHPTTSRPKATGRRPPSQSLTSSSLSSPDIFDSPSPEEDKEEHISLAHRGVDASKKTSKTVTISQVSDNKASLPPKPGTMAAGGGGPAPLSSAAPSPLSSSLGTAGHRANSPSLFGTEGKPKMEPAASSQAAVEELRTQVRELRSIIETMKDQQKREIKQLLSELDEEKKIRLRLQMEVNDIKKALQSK
UniProt P04075: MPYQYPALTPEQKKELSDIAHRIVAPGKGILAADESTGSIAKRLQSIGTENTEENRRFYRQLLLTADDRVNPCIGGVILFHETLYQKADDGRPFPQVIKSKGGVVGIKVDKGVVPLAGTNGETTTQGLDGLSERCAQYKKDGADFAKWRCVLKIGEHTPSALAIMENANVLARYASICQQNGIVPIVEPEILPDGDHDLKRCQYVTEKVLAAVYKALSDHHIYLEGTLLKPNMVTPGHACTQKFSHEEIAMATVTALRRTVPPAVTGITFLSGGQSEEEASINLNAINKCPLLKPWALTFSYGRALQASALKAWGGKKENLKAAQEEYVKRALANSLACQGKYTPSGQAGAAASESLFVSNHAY
UniProt O60296: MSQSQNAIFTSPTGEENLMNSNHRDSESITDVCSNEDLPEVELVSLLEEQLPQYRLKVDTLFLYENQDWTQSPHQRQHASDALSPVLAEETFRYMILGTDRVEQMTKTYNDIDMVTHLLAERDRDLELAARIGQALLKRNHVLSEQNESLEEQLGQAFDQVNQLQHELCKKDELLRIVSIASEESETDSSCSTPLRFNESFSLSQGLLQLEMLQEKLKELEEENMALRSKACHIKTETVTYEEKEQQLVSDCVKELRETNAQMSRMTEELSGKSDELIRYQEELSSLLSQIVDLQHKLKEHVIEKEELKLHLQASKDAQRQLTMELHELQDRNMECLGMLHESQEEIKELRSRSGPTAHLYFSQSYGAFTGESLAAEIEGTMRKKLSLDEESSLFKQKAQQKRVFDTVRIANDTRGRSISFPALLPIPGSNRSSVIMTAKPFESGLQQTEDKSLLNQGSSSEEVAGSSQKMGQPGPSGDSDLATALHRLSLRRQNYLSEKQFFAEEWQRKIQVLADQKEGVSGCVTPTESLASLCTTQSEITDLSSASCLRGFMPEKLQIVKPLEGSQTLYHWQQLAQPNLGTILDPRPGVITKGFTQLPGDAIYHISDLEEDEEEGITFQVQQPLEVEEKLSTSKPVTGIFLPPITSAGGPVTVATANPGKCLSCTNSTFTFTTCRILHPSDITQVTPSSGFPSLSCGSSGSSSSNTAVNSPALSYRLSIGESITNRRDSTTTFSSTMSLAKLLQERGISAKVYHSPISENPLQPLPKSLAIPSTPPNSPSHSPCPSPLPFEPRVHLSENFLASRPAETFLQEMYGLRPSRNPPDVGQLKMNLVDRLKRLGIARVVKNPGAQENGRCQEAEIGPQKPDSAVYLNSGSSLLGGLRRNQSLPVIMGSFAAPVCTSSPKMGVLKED
UniProt Q86YS7: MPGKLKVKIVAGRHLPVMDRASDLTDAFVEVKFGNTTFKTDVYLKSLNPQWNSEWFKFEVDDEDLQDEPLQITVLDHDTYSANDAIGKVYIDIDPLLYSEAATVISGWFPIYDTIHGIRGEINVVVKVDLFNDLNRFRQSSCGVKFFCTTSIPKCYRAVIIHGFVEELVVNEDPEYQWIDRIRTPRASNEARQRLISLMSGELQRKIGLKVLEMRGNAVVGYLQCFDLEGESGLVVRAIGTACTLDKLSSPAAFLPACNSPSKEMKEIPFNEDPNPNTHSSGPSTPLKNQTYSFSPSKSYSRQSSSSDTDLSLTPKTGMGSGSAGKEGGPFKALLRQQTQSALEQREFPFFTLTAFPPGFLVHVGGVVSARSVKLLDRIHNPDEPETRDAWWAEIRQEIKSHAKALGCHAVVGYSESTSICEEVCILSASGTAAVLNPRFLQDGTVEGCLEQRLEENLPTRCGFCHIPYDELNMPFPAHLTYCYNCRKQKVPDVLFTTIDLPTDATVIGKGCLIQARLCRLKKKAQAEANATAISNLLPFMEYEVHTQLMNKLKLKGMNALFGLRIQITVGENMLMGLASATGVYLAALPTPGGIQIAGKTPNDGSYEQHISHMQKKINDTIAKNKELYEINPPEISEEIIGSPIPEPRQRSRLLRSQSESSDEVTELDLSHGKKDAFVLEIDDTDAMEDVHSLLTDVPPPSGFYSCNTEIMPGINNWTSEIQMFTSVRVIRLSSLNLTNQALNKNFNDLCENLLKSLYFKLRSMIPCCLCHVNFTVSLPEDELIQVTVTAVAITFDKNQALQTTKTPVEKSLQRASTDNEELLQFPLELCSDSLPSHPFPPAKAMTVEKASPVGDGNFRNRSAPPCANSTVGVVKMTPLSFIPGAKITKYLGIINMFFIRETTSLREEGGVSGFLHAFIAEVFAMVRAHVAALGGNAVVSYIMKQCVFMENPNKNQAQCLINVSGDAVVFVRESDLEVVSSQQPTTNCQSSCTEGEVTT
UniProt O75446: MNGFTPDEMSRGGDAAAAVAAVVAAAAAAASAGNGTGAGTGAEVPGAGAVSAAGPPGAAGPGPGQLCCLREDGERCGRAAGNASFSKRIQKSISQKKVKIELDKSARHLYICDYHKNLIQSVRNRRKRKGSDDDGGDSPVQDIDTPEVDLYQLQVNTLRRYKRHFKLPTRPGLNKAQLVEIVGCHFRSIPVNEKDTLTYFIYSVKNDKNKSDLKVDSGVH

Compound in the assay: CC[C@@H](C)Nc1cc(C(=O)N[C@H]2C[C@H]3CC[C@@H](C2)N3c2ccc(C(=O)C3CC3)cn2)c(C)cc1C(N)=O [XL888]
As to the kind of experiment: phosphopeptide melting temperature shift (XL888 minus DMSO); higher = stabilised by drug treatment. As to conditions: 100 µM; treatment time 2 h; layout: intact cells; SK-Mel 28. As to the method: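 Phospho-TPP in intact SK-Mel 28 cells treated with 100 uM XL888 or DMSO for 2 h, heated at 10 temperatures (37-67 C) for 3 min, soluble fraction TMT10plex-labelled and TiO2 phospho-enriched. Melting curves were fitted per phosphopeptide; the value is the melting point difference (drug minus vehicle) in each of two biological replicates.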
Consider “UniProt Q8NDI1-3_phosphosite_300 (phosphosite position: 300)”, for which the “phosphopeptide melting temperature shift” value was 0.558 ± 0.61 °C.
With “UPP1 phosphosite_61 (phosphosite position: 61) (UniProt Q16831)” the figure was 0.58 °C; with “UniProt O94854-2_phosphosite_666 (phosphosite position: 666)”, 0.84 ± 1 °C; with “AVEN phosphosite_94 (phosphosite position: 94) (UniProt Q9NQS1)”, 2.32 °C.
Consider “UniProt P17706-3_phosphosite_304 (phosphosite position: 304)”, for which the “phosphopeptide melting temperature shift” value is -0.567 °C.
“RAF1 phosphosite_621 (phosphosite position: 621) (UniProt P04049)”: the “phosphopeptide melting temperature shift” value came to 1.54 ± 2.8 °C.
Take “UniProt Q9NYF8-3_phosphosite_283 (phosphosite position: 283)”: the “phosphopeptide melting temperature shift” value worked out at 3.54 °C.
Turning to “UniProt Q9UPT5-4_phosphosite_250 (phosphosite position: 250)”, the “phosphopeptide melting temperature shift” value is 2.76 °C.
Then “SRRM2 phosphosite_2727 (phosphosite position: 2727) (UniProt Q9UQ35)”, with 4.17 °C; and “UniProt Q5TDH0-2_phosphosite_121 (phosphosite position: 121)”, with 4.01 ± 1 °C; and “UniProt Q9H0D6-2_phosphosite_423 (phosphosite position: 423)”, with -1.3 ± 4.1 °C.
Regarding “UniProt Q9UPN3-4_phosphosite_1376 (phosphosite position: 1376)”, the “phosphopeptide melting temperature shift” value is -0.557 °C.
For “UniProt P07910-2_phosphosite_247 (phosphosite position: 247)”, the “phosphopeptide melting temperature shift” value was 5.31 °C.
For “SRRM2 phosphosite_973 (phosphosite position: 973) (UniProt Q9UQ35)”, the “phosphopeptide melting temperature shift” value is 4.84 ± 0.9 °C.
Turning to “MICALL1 phosphosite_273 (phosphosite position: 273) (UniProt Q8N3F8)”, the “phosphopeptide melting temperature shift” value worked out at 0.141 °C.
Regarding “UniProt A1L390-3_phosphosite_432 (phosphosite position: 432)”, the “phosphopeptide melting temperature shift” value is 1.28 °C.
With “UniProt P05771-2_phosphosite_641 (phosphosite position: 641)” the figure was -0.509 °C; with “UniProt P49418-2_phosphosite_272 (phosphosite position: 272)”, -0.251 °C.
For the target “PURB phosphosite_304 (phosphosite position: 304) (UniProt Q96QR8)”, the “phosphopeptide melting temperature shift” value is 4.55 °C.
Then “UniProt Q5T200-2_phosphosite_198 (phosphosite position: 198)”, with 0.149 ± 0.28 °C.
As for “UniProt O94804_phosphosite_13 (phosphosite position: 13)”, the “phosphopeptide melting temperature shift” value was determined as 0.194 ± 0.19 °C.
Turning to “UniProt Q96B97-2_phosphosite_193 (phosphosite position: 193)”, the “phosphopeptide melting temperature shift” value was -0.075 ± 1.2 °C.
With “RB1 phosphosite_37 (phosphosite position: 37) (UniProt P06400)” the figure was 2.32 ± 0.2 °C; with “ALDOA phosphosite_46 (phosphosite position: 46) (UniProt P04075)”, 2.46 °C.
Consider “UniProt O60296_phosphosite_776 (phosphosite position: 776)”, for which the “phosphopeptide melting temperature shift” value is 0.469 ± 1.6 °C.
As to “SRRM1 phosphosite_607 (phosphosite position: 607) (UniProt Q8IYB3)”, the “phosphopeptide melting temperature shift” value is 0.647 ± 0.38 °C.
With “UniProt Q86YS7_phosphosite_280 (phosphosite position: 280)” the figure was 0.223 ± 0.13 °C; with “SAP30 phosphosite_138 (phosphosite position: 138) (UniProt O75446)”, 0.302 °C.

Values taken from the supplement of paper PMC5836539.
